# Experimental data as given in article PMC7179242.
# The chains behind the UniProt entries cited, without tags or fusion partners.
# UniProt P40160: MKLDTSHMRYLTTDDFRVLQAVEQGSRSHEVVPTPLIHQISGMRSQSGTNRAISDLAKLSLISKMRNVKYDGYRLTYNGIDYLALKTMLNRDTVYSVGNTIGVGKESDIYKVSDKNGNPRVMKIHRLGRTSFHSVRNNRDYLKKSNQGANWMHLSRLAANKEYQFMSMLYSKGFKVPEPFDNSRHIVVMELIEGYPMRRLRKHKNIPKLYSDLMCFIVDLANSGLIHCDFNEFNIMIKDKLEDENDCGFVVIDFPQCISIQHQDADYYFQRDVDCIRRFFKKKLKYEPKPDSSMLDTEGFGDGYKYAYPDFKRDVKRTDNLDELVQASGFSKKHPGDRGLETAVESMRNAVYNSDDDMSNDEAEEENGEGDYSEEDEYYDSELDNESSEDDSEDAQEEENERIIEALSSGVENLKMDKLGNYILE
# These are yes or no findings as the source states them, for the method shown. Some entries that bind do so weakly or less than the wild type.
# T1: Tsr1-FPZ (S. cerevisiae) (UniProt Q07381)
# T1 sequence (chain, phosphorylated on T354 or S358 (100% of the peptide)): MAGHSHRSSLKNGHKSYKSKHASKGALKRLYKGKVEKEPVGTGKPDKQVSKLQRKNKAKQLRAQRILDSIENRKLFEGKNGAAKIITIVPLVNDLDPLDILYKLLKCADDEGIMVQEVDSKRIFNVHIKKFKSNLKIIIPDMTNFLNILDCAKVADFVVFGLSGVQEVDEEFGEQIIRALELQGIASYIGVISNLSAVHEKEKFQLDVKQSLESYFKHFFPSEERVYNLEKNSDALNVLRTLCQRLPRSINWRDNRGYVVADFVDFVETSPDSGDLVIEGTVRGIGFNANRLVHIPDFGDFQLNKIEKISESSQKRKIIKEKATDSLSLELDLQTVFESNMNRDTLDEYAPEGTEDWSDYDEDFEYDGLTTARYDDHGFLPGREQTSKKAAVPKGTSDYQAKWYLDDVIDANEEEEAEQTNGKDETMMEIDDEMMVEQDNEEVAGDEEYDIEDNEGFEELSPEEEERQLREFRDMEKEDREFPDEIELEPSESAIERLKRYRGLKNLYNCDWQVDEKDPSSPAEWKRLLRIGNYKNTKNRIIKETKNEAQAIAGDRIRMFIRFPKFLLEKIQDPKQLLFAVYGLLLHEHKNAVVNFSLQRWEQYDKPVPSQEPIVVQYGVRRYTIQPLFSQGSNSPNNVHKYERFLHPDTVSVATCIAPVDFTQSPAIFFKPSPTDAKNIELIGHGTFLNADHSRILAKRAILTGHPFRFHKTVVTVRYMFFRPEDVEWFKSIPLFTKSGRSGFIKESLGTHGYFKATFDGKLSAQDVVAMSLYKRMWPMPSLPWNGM
# T2: Enp1 (S. cerevisiae (endogenous in BY4742)) (UniProt P38333)
# T2 sequence: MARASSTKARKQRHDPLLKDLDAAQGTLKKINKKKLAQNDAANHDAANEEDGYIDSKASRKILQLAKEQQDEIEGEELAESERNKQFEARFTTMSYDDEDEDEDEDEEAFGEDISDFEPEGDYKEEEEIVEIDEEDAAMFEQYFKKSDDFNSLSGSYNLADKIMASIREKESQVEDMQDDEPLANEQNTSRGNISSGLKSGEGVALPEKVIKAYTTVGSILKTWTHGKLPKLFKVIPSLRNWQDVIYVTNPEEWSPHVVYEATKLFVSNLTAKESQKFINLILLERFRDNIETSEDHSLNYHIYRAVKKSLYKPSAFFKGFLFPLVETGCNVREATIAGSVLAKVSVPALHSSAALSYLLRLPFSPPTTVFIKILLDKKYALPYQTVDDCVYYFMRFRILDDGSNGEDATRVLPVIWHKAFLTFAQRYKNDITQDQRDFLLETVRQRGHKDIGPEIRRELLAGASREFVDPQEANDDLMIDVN
# Tests used:
# Tsr1-FPZ (S. cerevisiae) = molecular target: T1, Tsr1-FPZ (S. cerevisiae); assay: cryo-EM structure; single particle analysis of Tsr1-FPZ pre-40S particles (ribonucleoprotein, purified from yeast by the bait Tsr1); consensus 3.1 Å, global classes GC1-GC3, focused classes H1-H3 (head) and P1-P3 (platform)
# [1] = molecular target: T2, Enp1 (S. cerevisiae (endogenous in BY4742)); assay: as above
Molecule,binding (Tsr1-FPZ (S. cerevisiae)),binding [1]
Rio2 (from UniProt P40160 1-425),binds,–
"Enp1 (protein, UniProt P38333 1-483) MARASSTKARKQRHDPLLKDLDAAQGTLKKINKKKLAQNDAANHDAANEEDGYIDSKASRKILQLAKEQQDEIEGEELAESERNKQFEARFTTMSYDDEDEDEDEDEEAFGEDISDFEPEGDYKEEEEIVEIDEEDAAMFEQYFKKSDDFNSLSGSYNLADKIMASIREKESQVEDMQDDEPLANEQNTSRGNISSGLKSGEGVALPEKVIKAYTTVGSILKTWTHGKLPKLFKVIPSLRNWQDVIYVTNPEEWSPHVVYEATKLFVSNLTAKESQKFINLILLERFRDNIETSEDHSLNYHIYRAVKKSLYKPSAFFKGFLFPLVETGCNVREATIAGSVLAKVSVPALHSSAALSYLLRLPFSPPTTVFIKILLDKKYALPYQTVDDCVYYFMRFRILDDGSNGEDATRVLPVIWHKAFLTFAQRYKNDITQDQRDFLLETVRQRGHKDIGPEIRRELLAGASREFVDPQEANDDLMIDVN",binds,–
"Ltv1 (protein, UniProt P34078 1-463) MSKKFSSKNSQRYVVVHRPHDDPSFYDTDASAHVLVPVSNPNKTSPEADLRKKDVSSTKPKGRRAHVGEAALYGINFDDSEYDYTQHLKPIGLDPENSIFIASKGNEQKVEKKNIEDLFIEPKYRRDEIEKDDALPVFQRGMAKPEYLLHQQDTTDEIRGFKPDMNPALREVLEALEDEAYVVNDDVVVEDISKKTQLQGDNYGEEEKEDDIFAQLLGSGEAKDEDEFEDEFDEWDIDNVENFEDENYVKEMAQFDNIENLEDLENIDYQADVRRFQKDNSILEKHNSDDEFSNAGLDSVNPSEEEDVLGELPSIQDKSKTGKKKRKSRQKKGAMSDVSGFSMSSSAIARTETMTVLDDQYDQIINGYENYEEELEEDEEQNYQPFDMSAERSDFESMLDDFLDNYELESGGRKLAKKDKEIERLKEAADEVSKGKLSQRRNRERQEKKKLEKVTNTLSSLKF",binds,binds

# Results, then the molecule that gave them:
binding (Tsr1-FPZ (S. cerevisiae)),binding [1],Molecule
binds,–,"Rps12 (eS12) (protein, UniProt P48589 1-143) MSDVEEVVEVQEETVVEQTAEVTIEDALKVVLRTALVHDGLARGLRESTKALTRGEALLVVLVSSVTEANIIKLVEGLANDPENKVPLIKVADAKQLGEWAGLGKIDREGNARKVVGASVVVVKNWGAETDELSMIMEHFSQQ"
binds,–,"Rps20 (protein, UniProt P38701 1-121) MSDFQKEKVEEQEQQQQQIIKIRITLTSTKVKQLENVSSNIVKNAEQHNLVKKGPVRLPTKVLKISTRKTPNGEGSKTWETYEMRIHKRYIDLEAPVQIVKRITQITIEPGVDVEVVVASN"
